Test results reported in patent publication US10988523B2 (Sanofi, priority 2018, dated 2021).

Assay: general procedure: Fmoc solid-phase peptide synthesis; Rink amide AM resin (Rink Amide AM LL, NovaBiochem); DIC/HOAt
Conditions: whole synthesis, trifluoroacetate salt; for final HPLC purity: UV; for final HPLC purity / isolated yield: scale of the general procedure 0.1 to 0.2 mmol

With “Ac-L-E-G-R-E-K-V-R-A-K(Ac)-I-Aib-Aib-E-G-Q-S-T-F-S-Mly-R-A-K(Ac)-PEG2-PEG2-PEG2-PEG2-K(gE-gE-gE-gE-Palm)-NH2” the “final HPLC purity” value was 98%, the isolated yield was 16% and the crude mass was 600 mg. It also gave an isolated mass of 140 mg.
In the case of “Ac-L-E-G-R-E-K-V-R-A-K(Ac)-I-Aib-Aib-E-G-Nle-S-T-F-S-Mly-R-A-K(Ac)-PEG2-PEG2-PEG2-PEG2-K(gE-gE-gE-gE-Palm)-NH2”, the “final HPLC purity” value is reported as 98%, the isolated yield is reported as 14% and the crude mass is reported as 600 mg. The isolated mass was 135 mg.
For “Ac-L-E-G-R-E-K-V-R-A-K(Ac)-I-Aib-Aib-E-G-Nle-S-T-W-S-Aib-R-K-K(Ac)-PEG12-K(gE-gE-gE-Stea)-NH2”, the “final HPLC purity” value was 91%, the crude mass (scale 0.2 mmol) was 645 mg and the isolated yield was 10%. For the same substance, the isolated mass was 96 mg.
In the case of “Ac-L-E-G-R-E-K-V-R-A-Q-I-Aib-Aib-E-G-Nle-S-T-W-S-Aib-R-K-K(PEG2-PEG2-gE-gE-gE-Palm)-NH2”, the “final HPLC purity” value is reported as 97%, the isolated yield is reported as 4% and the crude mass is reported as 300 mg. The isolated mass was 38 mg.
For “Ac-L-E-G-R-E-K-V-R-A-K(Ac)-I-Aib-Aib-E-G-Nle-S-T-W-S-Aib-R-K-K(Ac)-K(PEG2-PEG2-PEG2-gE-gE-gE-Palm)-NH2”, the “final HPLC purity” value was 93%, the isolated yield was 20% and the crude mass was 600 mg. It also gave an isolated mass of 144 mg.
For “Ac-L-E-G-R-E-K-V-R-A-K(Ac)-I-Aib-Aib-E-G-Nle-S-T-W-S-Aib-R-K-K(Ac)-K(PEG2-PEG2-PEG2-gE-gE-gE-Stea)-NH2”, the “final HPLC purity” value was 93%, the isolated yield was 20% and the crude mass was 600 mg. It also gave an isolated mass of 185 mg.
